Experimental data from PubChem BioAssay AID1347426 (Functional Genomics Laboratory (NCATS/FGL), 2020).
The campaign covered roughly 31,000 sequences. About 1,400 (4.5%) were called active.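 Rule for the calls: active = median seed-adjusted z-score above 1 or below -1; inactive = the rest.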 Some of the results follow.

Assay: Novel Modifiers of Survival Motor Neuron (SMN) Protein: Gene Identification via Genome-wide siRNA Screen;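 note: luminescence tracks full-length SMN protein made from the SMN2 reporter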
Conditions: HEK293T SMN2-luciferase reporter, siRNA knockdown, 72 h; actives lie on both sides
In short: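 siRNA screen, 10418 genes ×3 siRNAs; 1 pmol/well, lipid reverse transfection into HEK293T SMN2-luc reporter line. 72 h, 37 °C, 5% CO2; ONE-Glo readout. Data: neg-ctrl normalized, log10, MAD; hit = MAD >1.0 or < -1.0.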

Sequence	median seed-adjusted z-score
GAAGGAGCAGGAUUACCAATT against TMED4	inactive: -0.895
CUCCUACUCUGACUCCCAATT against NOS1	inactive: 0.0195
CAUGAAGACUAUACCCUGATT against CYP8B1	inactive: 0
GCAUGAUCUUGGAUUCUGATT against LIG3	inactive: -0.0498
GGAGGUUAAAGUGAAGAUUTT against MORF4L2	inactive: 0.389
CGCAAGUACUAUUACAAGUTT against ZNF335	inactive: -0.305
GGUCUACGUGAACAACUCUTT against KCNMB4	inactive: 0
GGGAUGAAGUAUCAUGUCATT against ZNF512	inactive: -0.675
ACCGAUUCCUGAACCCUGATT against PTGIS	inactive: 0
GGUGAAAGAAGGUCGAGUATT against PPP3CB	inactive: 0.0225
GGAGCUACUUAAUCGGGAUTT against ANGEL1	inactive: -0.332
GGAUGGAGGAAGUUAUUAATT against RLN2	inactive: 0.877
CAGGAGCAGUUAGACUUAATT against DNALI1	inactive: 0.699
GCUUCGUCAUAAUACUCCATT against STT3A	inactive: 0
GGGAAUUACCAGUUACGGATT against TMPRSS12	inactive: 0.0961
CGAUGUAUUGUUAAUCGUATT against USP9Y	inactive: 0.012
GGACCUAUUCGUCAAAUCATT against SF3B14	active: -1.26
GAAACCCGGUUACAAUGGATT against SPAM1	inactive: 0.518
GCAUUAACCCUUACCACUATT against SMAD9	inactive: -0.492
GCACAAGUUUUGAUUCGGATT against CD86	inactive: 0
CCCGUAACCUAAUUCCUAUTT against PRKCG	inactive: 0
GGUGUGAAGUUCCUCAGAATT against DGKD	inactive: 0.35
AGAACAUUCCGGGAAAUCATT against MAPK15	inactive: 0.0724
GGGUGGAUGUCAUGCAGCATT against SORBS3	inactive: 0.106
CCACGGUGAUAACAGACAUTT against ALDH8A1	inactive: 0.0628
GGUGGAACCUAGAGAUGAATT against NCOR1	inactive: 0.0767
GGAUAGUCAGCUACAUCGATT against SDR42E1	inactive: -0.109
GGUCAGUGACCAAAAGGAATT against NFATC2	inactive: 0.183
CACCGAGGGAGAAAUCUAATT against ZNF136	inactive: 0.229
UGGAGAGACUUAUCCAAGATT against CKMT1B	inactive: -0.929

Quoted at random: 2 entries already listed
Sequence	median seed-adjusted z-score
GGACCUAUUCGUCAAAUCATT against SF3B14	active: -1.26
GGUCUACGUGAACAACUCUTT against KCNMB4	inactive: 0
